Reference: doi:10.1101/515700
Results are given in words; binding and its absence hold for the method and conditions named. Binding seen in cells or lysates may run through a third protein. Some binding calls cover weakened binding; strength is not graded here.

Amino acid sequences for entries named in this document (tags omitted).
UniProt P21730: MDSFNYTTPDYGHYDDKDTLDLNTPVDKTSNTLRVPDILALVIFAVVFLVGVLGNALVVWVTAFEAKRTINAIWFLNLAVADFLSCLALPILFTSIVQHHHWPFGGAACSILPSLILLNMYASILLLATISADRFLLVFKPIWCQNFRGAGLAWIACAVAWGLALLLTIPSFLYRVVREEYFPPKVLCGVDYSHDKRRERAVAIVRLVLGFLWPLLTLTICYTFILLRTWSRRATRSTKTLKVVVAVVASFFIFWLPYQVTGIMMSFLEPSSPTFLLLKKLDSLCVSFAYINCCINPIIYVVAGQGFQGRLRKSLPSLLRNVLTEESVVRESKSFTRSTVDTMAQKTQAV
UniProt Q9P296: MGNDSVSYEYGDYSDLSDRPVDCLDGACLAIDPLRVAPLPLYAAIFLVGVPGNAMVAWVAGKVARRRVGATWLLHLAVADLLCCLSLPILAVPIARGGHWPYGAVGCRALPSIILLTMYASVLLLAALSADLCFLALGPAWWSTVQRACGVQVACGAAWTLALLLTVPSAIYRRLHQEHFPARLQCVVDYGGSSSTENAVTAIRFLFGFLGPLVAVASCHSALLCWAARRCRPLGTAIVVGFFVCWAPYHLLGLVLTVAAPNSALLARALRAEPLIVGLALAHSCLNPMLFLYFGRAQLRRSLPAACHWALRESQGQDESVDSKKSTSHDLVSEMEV
UniProt P32120: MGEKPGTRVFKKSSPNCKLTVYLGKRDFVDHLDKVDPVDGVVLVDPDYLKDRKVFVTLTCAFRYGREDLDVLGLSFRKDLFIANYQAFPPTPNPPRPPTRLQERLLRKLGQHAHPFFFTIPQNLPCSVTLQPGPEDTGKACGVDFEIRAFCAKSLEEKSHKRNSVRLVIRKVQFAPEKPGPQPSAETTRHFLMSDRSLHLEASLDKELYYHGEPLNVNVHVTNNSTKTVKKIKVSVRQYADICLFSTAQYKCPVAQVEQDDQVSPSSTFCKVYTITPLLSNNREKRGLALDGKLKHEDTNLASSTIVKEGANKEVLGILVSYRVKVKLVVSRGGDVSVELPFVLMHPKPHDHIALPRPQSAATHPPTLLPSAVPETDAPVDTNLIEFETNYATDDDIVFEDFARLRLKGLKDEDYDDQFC
UniProt P32121: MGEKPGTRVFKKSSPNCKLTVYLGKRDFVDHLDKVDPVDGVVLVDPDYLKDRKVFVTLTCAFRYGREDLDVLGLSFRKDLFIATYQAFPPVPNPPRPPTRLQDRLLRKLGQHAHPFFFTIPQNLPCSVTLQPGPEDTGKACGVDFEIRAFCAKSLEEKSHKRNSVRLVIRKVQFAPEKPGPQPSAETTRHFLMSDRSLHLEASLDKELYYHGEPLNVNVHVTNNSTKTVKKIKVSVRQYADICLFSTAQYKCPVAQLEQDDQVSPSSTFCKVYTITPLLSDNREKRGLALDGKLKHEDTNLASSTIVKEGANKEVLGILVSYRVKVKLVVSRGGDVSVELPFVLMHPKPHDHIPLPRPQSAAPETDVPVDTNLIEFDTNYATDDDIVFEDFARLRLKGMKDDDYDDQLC
UniProt P17870: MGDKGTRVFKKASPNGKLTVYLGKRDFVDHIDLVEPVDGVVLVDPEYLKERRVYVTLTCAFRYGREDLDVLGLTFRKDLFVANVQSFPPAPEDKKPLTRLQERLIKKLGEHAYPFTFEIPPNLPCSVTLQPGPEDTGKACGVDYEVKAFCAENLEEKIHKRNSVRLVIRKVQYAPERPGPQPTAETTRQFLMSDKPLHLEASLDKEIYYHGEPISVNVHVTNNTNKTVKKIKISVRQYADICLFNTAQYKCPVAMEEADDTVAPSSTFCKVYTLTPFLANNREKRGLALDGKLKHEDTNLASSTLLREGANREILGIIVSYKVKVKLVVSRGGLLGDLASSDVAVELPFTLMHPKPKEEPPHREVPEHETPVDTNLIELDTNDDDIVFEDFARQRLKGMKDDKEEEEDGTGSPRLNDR

Columns and labels:
[1] = molecular target: FLAG-tagged human C5aR1 (human) (UniProt P21730); assay: co-IP
C5aR2-Venus = C5aR2-Venus (UniProt Q9P296); assay: FRET or BRET

Question: Which binding [1] does the source give for “bovine βarr2 (from UniProt P32120 1-420)” here?
Answer: Its binding is “binds”.

Question: For βarr2-Rluc8 (from UniProt P32121 1-409), which binding (C5aR2-Venus) is on record?
Answer: Its binding is “binds”.

Question: For “bovine βarr1 (from UniProt P17870 1-418)”, which binding [1] is on record?
Answer: Its binding is “binds”.
